# Hit rate of the full screen: of about 390,000 compounds, about 760 (0.19%) were called active. The inconclusive results got no clear call from the source; some entries with a clear call stand among them for comparison. Calls follow the shape of the dose curve; as a rule, active = well fitted inhibition curve with a large enough effect; inconclusive = small, poorly fitted or top-dose-only effect; inactive = flat fitted curve, though single readings scatter. Where the call is inconclusive, the potency comes from a doubtful curve fit.
# Experiment: qHTS for Inhibitors of Vif-A3F Interactions: qHTS; also: nearly all actives have a fitted effect of over 65% in size
# Settings: HeLa A3F-eYFP + Vif (tagged APOBEC3F with the HIV-1 protein that degrades it), YFP fluorescence increase; series mostly up to 46.1 µM
# Summary of the method: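 HeLa cells stably expressing A3F-eYFP plus Vif, plated and incubated overnight at 37 deg C, then exposed to compounds overnight at 37 deg C. Blocked degradation read as raised yellow fluorescence (Ex 488/Em 500-530).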
# Potency is read from the fitted curve at half-maximal effect.
row,SMILES,Potency
1,COC(=O)C1=NN(C(=O)c2cccc(Br)c2)C(O)(c2ccc(Cl)cc2)C1 (centres undefined),"inconclusive: 17.8 µM [inhibitor, partial curve, poor fit]"
2,COc1ccccc1CCN=C(N)NS(=O)(=O)c1ccc(C)cc1,"inconclusive: 35.5 µM [inhibitor, single point]"
3,CCc1cc(=O)n2c([nH]c3ccccc32)c1C#N,inactive
4,CCN1C(=O)[C@@H]2[C@@H](c3ccc(SC4CCCCC4)c(OC)c3)N3CCCC[C@@]3(C(=O)OC)[C@@H]2C1=O,"inconclusive: 25.1 µM [inhibitor, single point]"
5,CN1CC=C2C(C#N)=C(N)C(C#N)(C#N)[C@H](c3cccs3)[C@H]2C1,"inconclusive: 31.6 µM [inhibitor, partial curve, poor fit]"
6,Cc1cc(C)c(O)c(CN(C)Cc2cc(Cl)cc(Cl)c2O)c1,"inconclusive: 10 µM [inhibitor, partial curve, poor fit]"
7,Cc1cccc2c1-c1sc(C(=O)Nc3ccccc3C(N)=O)cc1CO2,inactive
8,CCOc1cc(C(=S)N2CCCCC2)ccc1OS(=O)(=O)c1ccc(Br)cc1,inactive
9,Nc1ccc(N(CCO)CCO)cc1,inactive
10,Cc1cc(N/N=C/c2ccc([N+](=O)[O-])o2)nc2ccccc12,"inconclusive: 3.16 µM [inhibitor, full curve, poor fit]"
11,Cc1nc([N+](=O)[O-])c(Sc2nc3ccc([N+](=O)[O-])cc3[nH]2)n1Cc1ccccc1,"inconclusive: 8.91 µM [inhibitor, partial curve, poor fit]"
12,O=C(C1CCCCC1)N(Cc1cccnc1)c1nc2c(F)cccc2s1,inactive
13,CCNc1ccc2noc3c2c1C(=O)c1ccccc1-3,"inconclusive: 11.2 µM [inhibitor, single point]"
14,Cc1nnc(SCC(=O)N2CCOCC2)c2ccccc12,inactive
15,CC1CCN(C(=O)CN2C(=O)NC(C)(c3ccc4ccccc4c3)C2=O)CC1 (centres undefined),"inconclusive: 6.31 µM [inhibitor, partial curve, poor fit]"
16,CCOc1ccc(-n2c(O)c(/C=N/c3ccnn3Cc3ccncc3)c3ccccc3c2=O)cc1,"inconclusive: 35.5 µM [inhibitor, single point]"
17,CCNc1nc(Oc2c(Cl)cccc2Cl)cc(C(F)(F)F)n1,"inconclusive: 31.6 µM [inhibitor, single point]"
18,CCCCn1c(N)c(N(Cc2ccccc2OC)C(=O)c2ccc([N+](=O)[O-])s2)c(=O)[nH]c1=O,active: 12.6 µM
19,NNC(=O)c1cc(-c2ccccc2)sc1N,inactive
20,Fc1ccc(-c2cc(-c3nc(-c4ccccc4)no3)[nH]n2)cc1,inactive
21,CCOC(=O)c1ccc(NC(=S)N(CCCN2CCCCCC2)Cc2ccco2)cc1,inactive
22,Cc1cc(C(=O)N/N=C/c2cccnc2)c2ccccc2n1,"inconclusive: 1.78 µM [inhibitor, partial curve, poor fit]"

# Shown with bars between the fields: part of the list above
row | SMILES | Potency
8 | CCOc1cc(C(=S)N2CCCCC2)ccc1OS(=O)(=O)c1ccc(Br)cc1 | inactive
9 | Nc1ccc(N(CCO)CCO)cc1 | inactive
10 | Cc1cc(N/N=C/c2ccc([N+](=O)[O-])o2)nc2ccccc12 | inconclusive: 3.16 µM [inhibitor, full curve, poor fit]
11 | Cc1nc([N+](=O)[O-])c(Sc2nc3ccc([N+](=O)[O-])cc3[nH]2)n1Cc1ccccc1 | inconclusive: 8.91 µM [inhibitor, partial curve, poor fit]
12 | O=C(C1CCCCC1)N(Cc1cccnc1)c1nc2c(F)cccc2s1 | inactive
13 | CCNc1ccc2noc3c2c1C(=O)c1ccccc1-3 | inconclusive: 11.2 µM [inhibitor, single point]
14 | Cc1nnc(SCC(=O)N2CCOCC2)c2ccccc12 | inactive
15 | CC1CCN(C(=O)CN2C(=O)NC(C)(c3ccc4ccccc4c3)C2=O)CC1 (centres undefined) | inconclusive: 6.31 µM [inhibitor, partial curve, poor fit]
16 | CCOc1ccc(-n2c(O)c(/C=N/c3ccnn3Cc3ccncc3)c3ccccc3c2=O)cc1 | inconclusive: 35.5 µM [inhibitor, single point]
17 | CCNc1nc(Oc2c(Cl)cccc2Cl)cc(C(F)(F)F)n1 | inconclusive: 31.6 µM [inhibitor, single point]
18 | CCCCn1c(N)c(N(Cc2ccccc2OC)C(=O)c2ccc([N+](=O)[O-])s2)c(=O)[nH]c1=O | active: 12.6 µM

# Later entries

row,SMILES,Potency
1,S=c1[nH]nc(-c2cccc(Cl)c2)n1Cc1ccccc1,inactive
2,COc1cccc(/C=C/C(=O)OCC(=O)Nc2cccc(S(=O)(=O)N3CCCCC3)c2)c1OC,"inconclusive: 35.5 µM [inhibitor, single point]"
3,CCC(=O)N1CCc2cc(Br)cc(S(=O)(=O)CCC(=O)N(C)c3cccc(C)c3)c21,inactive
4,Cc1c(C(=O)Nc2ccc3oc(-c4cccnc4)nc3c2)oc2ccccc12,"inconclusive: 35.5 µM [inhibitor, single point]"
5,CCC1(c2ccc(F)cc2)NC(=O)N(CC(=O)N2CCN(S(=O)(=O)c3ccc(Cl)cc3)CC2)C1=O (centres undefined),"inconclusive: 3.16 µM [inhibitor, partial curve, poor fit]"
6,O=C(CCC1CCCN(C(=O)Cn2cnnn2)C1)NCc1ccccc1F (centres undefined),"inconclusive: 1.58 µM [inhibitor, full curve, poor fit]"
7,COCCN(C(=O)CSc1n[nH]c(-c2ccccc2)n1)c1c(N)n(Cc2ccccc2)c(=O)[nH]c1=O,"inconclusive: 28.2 µM [inhibitor, single point]"
8,NC(=O)c1nsc(C(=O)N(c2ccccc2)C(C(=O)NC2CCCC2)c2ccc3ncccc3c2)c1N (centres undefined),inactive
9,CC1=NOC(=O)/C1=C\c1ccc(-c2ccc(Cl)cc2Cl)o1,"inconclusive: 3.55 µM [inhibitor, single point]"
10,COc1ccc(OC)c2c1sc(=NC(=O)c1ccco1)n2C,inactive
11,O=[N+]([O-])c1ccc(/C=N/Nc2ccc3ccccc3c2)o1,"inconclusive: 3.16 µM [inhibitor, partial curve, poor fit]"
12,C=C1CCC[C@]2(C)C[C@H]3OC(=O)C(CNC(C)CC)[C@H]3CC12 (some centres undefined),inactive
13,CC(C)c1ccccc1NC(=S)NC1CCCCC1,"inconclusive: 35.5 µM [inhibitor, single point]"
14,CS(=O)(=O)N1CCN(c2ccc(NC(=O)C(c3ccccc3)c3ccccc3)cc2)CC1,inactive
15,Cc1ccc(-n2c(COc3cccc(C)c3)n[nH]c2=S)cc1,inactive
16,COc1cccc(-c2nnc(NC(=O)c3ccccc3Br)o2)c1,"inconclusive: 15.8 µM [inhibitor, single point]"
17,C=CC[n+]1c(/C=C2\C=Cc3cc(C)ccc3N2CC)ccc2ccccc21,"inconclusive: 17.8 µM [inhibitor, partial curve, poor fit]"
18,COc1cccc(NC(=O)CN(C)C(=O)c2cc(-c3ccco3)nc3ccccc23)c1,"inconclusive: 5.62 µM [inhibitor, single point]"
19,O=C(Nn1cnnc1)c1cc(Cl)cc(Cl)c1,"inconclusive: 17.8 µM [inhibitor, single point]"
20,COc1ccc(NC(=O)CCCC(=O)OCC(=O)c2cccc(OC)c2)cc1,"inconclusive: 6.31 µM [inhibitor, single point]"
21,COc1cc(CC(=O)OCC(=O)Nc2ccc3c(c2)OCO3)cc(OC)c1OC,"inconclusive: 10 µM [inhibitor, partial curve, poor fit]"
22,Cc1cn2c(=O)cc(COC(=O)c3cccc(NC(=O)COc4ccccc4)c3)nc2s1,inactive

# From PubChem BioAssay AID602313 (National Center for Advancing Translational Sciences (NCATS), 2012)
